At least one compound was matched to its structure with a doubt left.
Columns and labels:
NDRG1 mRNA = experiment: Hormone treatment of LNCaP cells, NDRG1 mRNA by TAQMAN quantitative RT-PCR; type: cell-based; conditions: 10 μM Flutamide for 2 hours, then 1 nM R1881
Procedure: (§1) FIG. 6. Hormone treatment of LNCaP cells induced SLC45A3 and NDRG1 mRNA expression. SLC45A3 (A and C) or NDRG1 (B and D) mRNA expression was induced upon stimulation with synthetic androgen (R1881) and 17β-estradiol (E2). Serum-starved LNCaP cells were stimulated with 1 nM R1881, 1 nM R1881 in combination with 10 μM Flutamide (A and B), 10 nM E2 or 10 nM diarylpropionitrile (DPN) (C and D) for 3, 12 and 24 h. Samples were run in triplicate and normalized against TCFL1. Columns indicate the mean fold change of induction of three biological replicates against vehicle (Ethanol) only treated cells for the respective time points±SEM.
(§2) Hormone Treatment of LNCaP—The prostate cancer cell line LNCaP was obtained from ATCC (Manassas, Va.; cat.#CRL-1740) and maintained according to the suppliers instructions. For hormonal treatment, cells were plated (500,000 cells/10 cm^2) in the presence of complete growth medium supplemented with 1% Penicillin/Streptomycin. Cells were starved for 48 h in charcoal-stripped (CS) medium (RPMI-1640 1×, 5% charcoal-stripped […], 1% Penicillin/Streptomycin) and then treated with R1881 (1 nM), 17β-estradiol (10 nM), diarylpropionitrile (DPN, 10 nM) or ethanol vehicle for 3, 12, and 24 hours. […] TAQMAN expression assays (Applied Biosystems) were used to quantify relative levels of SL45A3, NDRG1, PSA (KLK3) and IGF1R.

SLC45A3 mRNA = experiment: Hormone treatment of LNCaP cells, SLC45A3 mRNA by TAQMAN quantitative RT-PCR; type: cell-based; conditions: 10 μM Flutamide for 2 hours, then 1 nM R1881
Procedure: as §1, §2

## CC(C)C(=O)Nc1ccc([N+](=O)[O-])c(C(F)(F)F)c1 [Flutamide]
NDRG1 mRNA
  induction of NDRG1 gene expression by R1881 in the presence of Flutamide: abrogated
SLC45A3 mRNA
  induction of SLC45A3 gene expression by R1881 in the presence of Flutamide: abrogated
